Results taken from paper PMC7930485.
Like-named read-outs stand apart in the source and are kept apart here. These are yes or no findings as the source states them, for the method shown. Binding seen in cells or lysates may run through a third protein. Some results given as binding are weak or reduced against the parent protein; the word gives no strength.

Chains of the proteins cited; added tags and fusions are not shown. Residues count along the entry.
UniProt Q08722, residues 19-323: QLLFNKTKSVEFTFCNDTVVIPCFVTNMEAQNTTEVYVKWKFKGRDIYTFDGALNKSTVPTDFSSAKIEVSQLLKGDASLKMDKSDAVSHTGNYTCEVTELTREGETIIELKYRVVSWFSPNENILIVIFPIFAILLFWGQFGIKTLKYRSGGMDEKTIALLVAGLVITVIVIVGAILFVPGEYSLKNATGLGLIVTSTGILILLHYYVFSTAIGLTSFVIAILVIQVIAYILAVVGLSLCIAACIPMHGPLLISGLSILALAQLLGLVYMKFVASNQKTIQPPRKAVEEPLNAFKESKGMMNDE
UniProt P07996, residues 19-1170: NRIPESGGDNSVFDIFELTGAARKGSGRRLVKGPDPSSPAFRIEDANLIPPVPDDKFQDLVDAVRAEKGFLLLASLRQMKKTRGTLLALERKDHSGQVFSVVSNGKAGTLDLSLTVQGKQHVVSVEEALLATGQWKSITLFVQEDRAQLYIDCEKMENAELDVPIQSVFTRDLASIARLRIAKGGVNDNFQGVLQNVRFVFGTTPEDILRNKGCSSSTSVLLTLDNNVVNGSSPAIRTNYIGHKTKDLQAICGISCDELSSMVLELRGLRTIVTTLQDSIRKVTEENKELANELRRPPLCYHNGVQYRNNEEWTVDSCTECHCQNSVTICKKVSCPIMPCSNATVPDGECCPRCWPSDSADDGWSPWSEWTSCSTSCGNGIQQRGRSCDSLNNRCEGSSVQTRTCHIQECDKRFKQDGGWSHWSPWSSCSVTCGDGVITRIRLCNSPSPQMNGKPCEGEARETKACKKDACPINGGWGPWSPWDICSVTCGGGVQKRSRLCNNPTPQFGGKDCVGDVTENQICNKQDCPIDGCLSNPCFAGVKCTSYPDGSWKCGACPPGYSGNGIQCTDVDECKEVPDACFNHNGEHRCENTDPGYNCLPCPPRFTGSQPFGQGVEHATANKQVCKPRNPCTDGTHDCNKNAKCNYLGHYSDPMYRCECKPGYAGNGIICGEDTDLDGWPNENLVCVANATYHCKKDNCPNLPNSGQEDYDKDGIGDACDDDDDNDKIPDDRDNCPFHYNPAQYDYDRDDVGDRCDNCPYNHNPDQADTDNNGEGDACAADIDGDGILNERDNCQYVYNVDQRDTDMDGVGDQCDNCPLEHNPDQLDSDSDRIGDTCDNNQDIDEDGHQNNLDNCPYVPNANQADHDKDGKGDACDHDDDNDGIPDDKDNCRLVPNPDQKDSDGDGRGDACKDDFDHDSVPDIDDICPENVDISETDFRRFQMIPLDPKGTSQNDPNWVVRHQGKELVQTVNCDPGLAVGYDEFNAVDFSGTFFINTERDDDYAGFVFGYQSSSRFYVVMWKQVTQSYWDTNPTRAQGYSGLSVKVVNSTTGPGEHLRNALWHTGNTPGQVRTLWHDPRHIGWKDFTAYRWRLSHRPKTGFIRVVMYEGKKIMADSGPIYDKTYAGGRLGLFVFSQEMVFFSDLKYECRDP

What was measured:
[1] = biological target: CD47 (human (endogenous in HK-2)) (UniProt Q08722); assay: co-IP; anti-CD47 or anti-γ-catenin on Protein G Sepharose beads, HK-2 cell lysate (IP buffer with protease inhibitors), 4°C 12 h; gel electrophoresis and blot; cells with or without OX-LDL
[2] = biological target: CD47 (human (endogenous in HK-2)) (UniProt Q08722); assay: as above; remark: listed apart in the source

With “thrombospondin-1 (from UniProt P07996 19-1170) (ligand)” as the molecule, how does the binding [1] read?
The binding was “binds”.

B1: γ-catenin (protein, UniProt P14923 1-745)
chain: MEVMNLMEQPIKVTEWQQTYTYDSGIHSGANTCVPSVSSKGIMEEDEACGRQYTLKKTTTYTQGVPPSQGDLEYQMSTTARAKRVREAMCPGVSGEDSSLLLATQVEGQATNLQRLAEPSQLLKSAIVHLINYQDDAELATRALPELTKLLNDEDPVVVTKAAMIVNQLSKKEASRRALMGSPQLVAAVVRTMQNTSDLDTARCTTSILHNLSHHREGLLAIFKSGGIPALVRMLSSPVESVLFYAITTLHNLLLYQEGAKMAVRLADGLQKMVPLLNKNNPKFLAITTDCLQLLAYGNQESKLIILANGGPQALVQIMRNYSYEKLLWTTSRVLKVLSVCPSNKPAIVEAGGMQALGKHLTSNSPRLVQNCLWTLRNLSDVATKQEGLESVLKILVNQLSVDDVNVLTCATGTLSNLTCNNSKNKTLVTQNSGVEALIHAILRAGDKDDITEPAVCALRHLTSRHPEAEMAQNSVRLNYGIPAIVKLLNQPNQWPLVKATIGLIRNLALCPANHAPLQEAAVIPRLVQLLVKAHQDAQRHVAAGTQQPYTDGVRMEEIVEGCTGALHILARDPMNRMEIFRLNTIPLFVQLLYSSVENIQRVAAGVLCELAQDKEAADAIDAEGASAPLMELLHSRNEGTATYAAAVLFRISEDKNPDYRKRVSVELTNSLFKHDPAAWEAAQSMIPINEPYGDDMDATYRPMYSSDVPLDPLEMHMDMDGDYPIDTYSDGLRPPYPTADHMLA
B1 was tested. Which binding [2] did it give?
Its binding is “binds”.
